Reference: PubChem BioAssay AID743454 (Peter MacCallum Cancer Centre, 2014)

Test: 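Knock-downs lowering viability or raising caspase 3/7 activity in vorinostat-treated resistant cells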 (primary screen)
Cells: human HCT116-VR colon cancer cells, selected for vorinostat resistance
Reagent: siRNA pool against human genes, 40 nM siRNA pool
Timing: vorinostat for 24 h, read-out about 72 h after transfection
Conditions: vorinostat at 2.5 µM final
Read-out: 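Cell viability by CellTiter-Fluor and caspase 3/7 activity by luminescence, each scaled to mock wells per plate, duplicates averaged, then robust z-scored over all plates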
Direction: viability robust z-score: higher = more viable cells than screen typical; caspase robust z-score: higher = more caspase 3/7 activity than screen typical
Active means: 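a knock-down is a hit when classed RV1 or RV2 for lowered viability, or CA1 or CA2 for caspase activation; those lethal without drug were dropped; hits were retested singly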
This is an unselected part of about 18,000 deposited reagents. In the full data, 450 (2.5%) got an active call. 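Single biological run; no consistent viability z cut-off exists, so the class columns, not z-scores, define the calls.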 Reagent sequences are not shown.

Depletion of CYP2C9 [SID134313166] gave: viability hit class no change; caspase hit class no change; viability robust z-score 0.1; caspase robust z-score -0.9; inactive.
Knock-down of KRT18P55 [SID152147838] resulted in: viability hit class no change; caspase hit class no change; viability robust z-score -1.09; caspase robust z-score 0.8; inactive.
With knock-down of TAGLN3 [SID152152135], the screen gave viability hit class no change; caspase hit class no change; viability robust z-score 0.79; caspase robust z-score 0.39; inactive.
After knock-down of ZNF404 [SID135624400], the record shows viability hit class no change; caspase hit class no change; viability robust z-score 0.22; caspase robust z-score -0.91; inactive.
FBXO48 [SID152149609] showed viability hit class no change; caspase hit class no change; viability robust z-score -1.68; caspase robust z-score 3.08; inactive.
After knock-down of CASP1 [SID152150505], the screen gave viability hit class no change; caspase hit class no change; viability robust z-score 0.68; caspase robust z-score -0.36; inactive.
Silencing of IMMT [SID135623847] came out at: viability hit class no change; caspase hit class no change; viability robust z-score 1.07; caspase robust z-score -0.69; inactive.
With knock-down of MTNAP1 [SID135623245] the results were viability hit class no change; caspase hit class no change; viability robust z-score 1.05; caspase robust z-score 1.15; inactive.
Silencing of CDKN1B [SID56478655] gave: viability hit class no change; caspase hit class no change; viability robust z-score -0.2; caspase robust z-score -0.92; inactive.
Knock-down of IGFBP3 [SID152150537] gave: viability hit class no change; caspase hit class no change; viability robust z-score 0.82; caspase robust z-score 1.57; inactive.
With knock-down of OTUD6A [SID134329511], the record shows viability hit class no change; caspase hit class no change; viability robust z-score 0.89; caspase robust z-score -0.43; inactive.
After knock-down of COPS5 [SID134311241] the results were viability hit class no change; caspase hit class no change; viability robust z-score -0.8; caspase robust z-score 1.83; inactive.
For KPNA6 [SID152154024], the values are viability hit class no change; caspase hit class no change; viability robust z-score -0.61; caspase robust z-score -0.21; inactive.
Against SLX4 [SID152155284], the values are viability hit class no change; caspase hit class no change; viability robust z-score 0.06; caspase robust z-score 0.08; inactive.
For TP53TG5 [SID134323955], the entry reads viability hit class no change; caspase hit class no change; viability robust z-score 0.36; caspase robust z-score 0.64; inactive.
Knock-down of REDIC1 [SID135623493] came out at: viability hit class no change; caspase hit class no change; viability robust z-score -0.2; caspase robust z-score 1.54; inactive.
After knock-down of CT47A11 [SID152151162] the results were viability hit class no change; caspase hit class no change; viability robust z-score 0.54; caspase robust z-score -0.36; inactive.
SLFNL1 [SID134320941] scored viability hit class no change; caspase hit class no change; viability robust z-score -1.27; caspase robust z-score 0.77; inactive.
After knock-down of RHOV [SID135621188], the record shows viability hit class no change; caspase hit class no change; viability robust z-score 0.74; caspase robust z-score -0.74; inactive.
For CABYR [SID135622321] the deposit lists viability hit class no change; caspase hit class no change; viability robust z-score 0.2; caspase robust z-score -0.4; inactive.
With knock-down of GMPR2 [SID152154108] the results were viability hit class no change; caspase hit class no change; viability robust z-score 0.56; caspase robust z-score -0.04; inactive.
